{"source": "PubChem BioAssay AID1259405 (NCATS, 2018)", "aim": "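Mouse-designed siRNAs used to find CHO productivity engineering targets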 (primary screen)", "system": "Chinese hamster CHO-K1 ovary cells with stable secreted eGFP expression", "reagent": "single siRNA against mouse genes, 0.8 pmol siRNA per well (2 µl of 400 nM stock)", "timing": "3 days", "detection": "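Per-well intracellular GFP measured by laser scanning cytometry, plus viability from ATP luminescence, each relative to plate median of non-targeting control wells, in %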", "reading the numbers": "GFP, % of control: higher = more GFP per well, higher productivity; viability (ATP), % of control: higher = more viable cells (more ATP)", "call rule": "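a knock-down is called active if GFP reaches 120% or more of non-targeting control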", "note": "The whole screen tested about 50,000 reagents; this is an unselected part. About 4,000 of them (8%) were called active. 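Mouse siRNA library applied to hamster cells; one well for each siRNA.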 Entries without a mark were called inactive. The numbers tell different reagents against one gene apart. Reagent sequences are not shown."}
{"gene knocked down": "Slc45a1", "reagent no.": 1, "GFP, % of control": 49.1, "viability (ATP), % of control": 86.6}
{"gene knocked down": "Slc45a1", "reagent no.": 2, "GFP, % of control": 74.9, "viability (ATP), % of control": 94.5}
{"gene knocked down": "Slc45a1", "reagent no.": 3, "GFP, % of control": 90.5, "viability (ATP), % of control": 65.1}
{"gene knocked down": "Cct6b (chaperonin containing TCP1 subunit 6B)", "reagent no.": 1, "GFP, % of control": 31.7, "viability (ATP), % of control": 37.1}
{"gene knocked down": "Cct6b (chaperonin containing TCP1 subunit 6B)", "reagent no.": 2, "GFP, % of control": 79.4, "viability (ATP), % of control": 87.4}
{"gene knocked down": "Cct6b (chaperonin containing TCP1 subunit 6B)", "reagent no.": 3, "GFP, % of control": 88.4, "viability (ATP), % of control": 147}
{"gene knocked down": "Mmd (monocyte to macrophage differentiation-associated)", "reagent no.": 1, "GFP, % of control": 79.9, "viability (ATP), % of control": 85.1}
{"gene knocked down": "Mmd (monocyte to macrophage differentiation-associated)", "reagent no.": 2, "GFP, % of control": 73.9, "viability (ATP), % of control": 88.3}
{"gene knocked down": "Mmd (monocyte to macrophage differentiation-associated)", "reagent no.": 3, "GFP, % of control": 73.8, "viability (ATP), % of control": 83.8}
{"gene knocked down": "Rasgef1b (RasGEF domain family, member 1B)", "reagent no.": 1, "GFP, % of control": 87.9, "viability (ATP), % of control": 70}
{"gene knocked down": "Rasgef1b (RasGEF domain family, member 1B)", "reagent no.": 2, "GFP, % of control": 95.7, "viability (ATP), % of control": 90.7}
{"gene knocked down": "Rasgef1b (RasGEF domain family, member 1B)", "reagent no.": 3, "GFP, % of control": 61.9, "viability (ATP), % of control": 80.1}
{"gene knocked down": "Asic3 (acid-sensing ion channel 3)", "reagent no.": 1, "GFP, % of control": 98.9, "viability (ATP), % of control": 143}
{"gene knocked down": "Asic3 (acid-sensing ion channel 3)", "reagent no.": 2, "GFP, % of control": 80.6, "viability (ATP), % of control": 124}
{"gene knocked down": "Asic3 (acid-sensing ion channel 3)", "reagent no.": 3, "GFP, % of control": 76.9, "viability (ATP), % of control": 63.6}
{"gene knocked down": "Dtx1 (deltex 1, E3 ubiquitin ligase)", "reagent no.": 1, "GFP, % of control": 89.7, "viability (ATP), % of control": 86.5}
{"gene knocked down": "Dtx1 (deltex 1, E3 ubiquitin ligase)", "reagent no.": 2, "GFP, % of control": "134 (active)", "viability (ATP), % of control": 115}
{"gene knocked down": "Fastkd1 (FAST kinase domains 1)", "reagent no.": 1, "GFP, % of control": "133 (active)", "viability (ATP), % of control": 56.5}
{"gene knocked down": "Fastkd1 (FAST kinase domains 1)", "reagent no.": 2, "GFP, % of control": 113, "viability (ATP), % of control": 98.9}
{"gene knocked down": "Fastkd1 (FAST kinase domains 1)", "reagent no.": 3, "GFP, % of control": "122 (active)", "viability (ATP), % of control": 122}
{"gene knocked down": "Parp12 (poly (ADP-ribose) polymerase family, member 12)", "reagent no.": 1, "GFP, % of control": 44.8, "viability (ATP), % of control": 45}
{"gene knocked down": "Parp12 (poly (ADP-ribose) polymerase family, member 12)", "reagent no.": 2, "GFP, % of control": 64, "viability (ATP), % of control": 32.4}
{"gene knocked down": "Parp12 (poly (ADP-ribose) polymerase family, member 12)", "reagent no.": 3, "GFP, % of control": 57.8, "viability (ATP), % of control": 60.1}
{"gene knocked down": "Zrsr2", "reagent no.": 1, "GFP, % of control": 75.3, "viability (ATP), % of control": 64.2}
{"gene knocked down": "Zrsr2", "reagent no.": 2, "GFP, % of control": 49.1, "viability (ATP), % of control": 34.7}
{"gene knocked down": "Zrsr2", "reagent no.": 3, "GFP, % of control": "122 (active)", "viability (ATP), % of control": 89.2}
{"gene knocked down": "Or51e1 (olfactory receptor family 51 subfamily E member 1)", "reagent no.": 1, "GFP, % of control": 53.9, "viability (ATP), % of control": 72.2}
{"gene knocked down": "Or51e1 (olfactory receptor family 51 subfamily E member 1)", "reagent no.": 2, "GFP, % of control": 102, "viability (ATP), % of control": 103}
{"gene knocked down": "Or51e1 (olfactory receptor family 51 subfamily E member 1)", "reagent no.": 3, "GFP, % of control": 49.9, "viability (ATP), % of control": 64.8}
{"gene knocked down": "Sp3 (trans-acting transcription factor 3)", "reagent no.": 1, "GFP, % of control": 13.2, "viability (ATP), % of control": 19.3}
{"gene knocked down": "Sp3 (trans-acting transcription factor 3)", "reagent no.": 2, "GFP, % of control": 63.3, "viability (ATP), % of control": 41.8}
{"gene knocked down": "Sp3 (trans-acting transcription factor 3)", "reagent no.": 3, "GFP, % of control": 84.6, "viability (ATP), % of control": 69.9}
{"gene knocked down": "Or6e1 (olfactory receptor family 6 subfamily E member 1)", "reagent no.": 1, "GFP, % of control": 112, "viability (ATP), % of control": 80}
{"gene knocked down": "Or6e1 (olfactory receptor family 6 subfamily E member 1)", "reagent no.": 2, "GFP, % of control": 68.3, "viability (ATP), % of control": 72.5}
{"gene knocked down": "Or6e1 (olfactory receptor family 6 subfamily E member 1)", "reagent no.": 3, "GFP, % of control": 107, "viability (ATP), % of control": 68.6}
{"gene knocked down": "Clpx", "reagent no.": 1, "GFP, % of control": 91.3, "viability (ATP), % of control": 83.9}
{"gene knocked down": "Clpx", "reagent no.": 2, "GFP, % of control": 106, "viability (ATP), % of control": 103}
{"gene knocked down": "Clpx", "reagent no.": 3, "GFP, % of control": 94.1, "viability (ATP), % of control": 103}
{"gene knocked down": "Gucy2c (guanylate cyclase 2c)", "reagent no.": 1, "GFP, % of control": 56.5, "viability (ATP), % of control": 84.3}
{"gene knocked down": "Gucy2c (guanylate cyclase 2c)", "reagent no.": 2, "GFP, % of control": 91, "viability (ATP), % of control": 90.5}
{"gene knocked down": "Gucy2c (guanylate cyclase 2c)", "reagent no.": 3, "GFP, % of control": 94.2, "viability (ATP), % of control": 72.3}
{"gene knocked down": "Vmn1r202 (vomeronasal 1 receptor 202)", "reagent no.": 1, "GFP, % of control": 63.5, "viability (ATP), % of control": 40.9}
{"gene knocked down": "Vmn1r202 (vomeronasal 1 receptor 202)", "reagent no.": 2, "GFP, % of control": 68.6, "viability (ATP), % of control": 75.6}
{"gene knocked down": "Vmn1r202 (vomeronasal 1 receptor 202)", "reagent no.": 3, "GFP, % of control": 97.1, "viability (ATP), % of control": 98.3}
{"gene knocked down": "Adk (adenosine kinase)", "reagent no.": 1, "GFP, % of control": "301 (active)", "viability (ATP), % of control": 134}
{"gene knocked down": "Adk (adenosine kinase)", "reagent no.": 2, "GFP, % of control": 80.6, "viability (ATP), % of control": 94.7}
{"gene knocked down": "Adk (adenosine kinase)", "reagent no.": 3, "GFP, % of control": 69.3, "viability (ATP), % of control": 79.9}
{"gene knocked down": "Mras (muscle and microspikes RAS)", "reagent no.": 1, "GFP, % of control": 37.5, "viability (ATP), % of control": 34.2}
{"gene knocked down": "Mras (muscle and microspikes RAS)", "reagent no.": 2, "GFP, % of control": 100, "viability (ATP), % of control": 90.4}
{"gene knocked down": "Mras (muscle and microspikes RAS)", "reagent no.": 3, "GFP, % of control": 68.1, "viability (ATP), % of control": 88.5}
{"gene knocked down": "Ugt2b38 (UDP glucuronosyltransferase 2 family, polypeptide B38)", "reagent no.": 1, "GFP, % of control": 71.5, "viability (ATP), % of control": 61.1}
{"gene knocked down": "Ugt2b38 (UDP glucuronosyltransferase 2 family, polypeptide B38)", "reagent no.": 2, "GFP, % of control": 80.4, "viability (ATP), % of control": 66.2}
{"gene knocked down": "Ugt2b38 (UDP glucuronosyltransferase 2 family, polypeptide B38)", "reagent no.": 3, "GFP, % of control": 62.1, "viability (ATP), % of control": 50.8}

Already shown: an excerpt of the list.
{"gene knocked down": "Zrsr2", "reagent no.": 3, "GFP, % of control": "122 (active)", "viability (ATP), % of control": 89.2}
{"gene knocked down": "Or51e1 (olfactory receptor family 51 subfamily E member 1)", "reagent no.": 1, "GFP, % of control": 53.9, "viability (ATP), % of control": 72.2}
{"gene knocked down": "Or51e1 (olfactory receptor family 51 subfamily E member 1)", "reagent no.": 2, "GFP, % of control": 102, "viability (ATP), % of control": 103}
{"gene knocked down": "Or51e1 (olfactory receptor family 51 subfamily E member 1)", "reagent no.": 3, "GFP, % of control": 49.9, "viability (ATP), % of control": 64.8}
{"gene knocked down": "Sp3 (trans-acting transcription factor 3)", "reagent no.": 1, "GFP, % of control": 13.2, "viability (ATP), % of control": 19.3}
{"gene knocked down": "Sp3 (trans-acting transcription factor 3)", "reagent no.": 2, "GFP, % of control": 63.3, "viability (ATP), % of control": 41.8}
